Read-outs that look alike come from different tables or passages of the source. These are yes or no findings as the source states them, for the method shown. In cells and extracts the contact can be indirect. Some results given as binding are weak or reduced against the parent protein; the word gives no strength. For some assays here: Where a sequence is shown, tags or fusion partners need not be part of it. Each block holds one molecule with its values, some of them ahead of it.
Key:
[1] = molecular target: T1, enkurin domain containing protein 1 (ENKD1), endogenous, human cells (human (endogenous in ARPE-19 and HEK293T)) (UniProt Q9H0I2); experiment: co-IP; endogenous proteins, ARPE-19 lysate; immunoprecipitation buffer 20 mM Tris-HCl, 150 mM NaCl, 1 mM EDTA, 1 mM EGTA, 1% NP-40, 2.5 mM sodium pyrophosphate, 10% glycerol, pH 7.5; antibody-conjugated agarose beads, 4 °C, 4 h
T1 sequence: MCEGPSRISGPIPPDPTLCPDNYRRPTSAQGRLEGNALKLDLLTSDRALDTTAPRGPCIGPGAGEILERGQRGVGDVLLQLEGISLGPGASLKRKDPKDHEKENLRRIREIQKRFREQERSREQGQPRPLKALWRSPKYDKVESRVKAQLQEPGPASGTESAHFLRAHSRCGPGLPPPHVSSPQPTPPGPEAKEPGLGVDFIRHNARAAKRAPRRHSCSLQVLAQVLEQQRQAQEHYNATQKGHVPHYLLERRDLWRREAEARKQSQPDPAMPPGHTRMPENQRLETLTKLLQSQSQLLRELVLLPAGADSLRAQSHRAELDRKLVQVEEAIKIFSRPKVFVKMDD

By UniProt entry, the sequences of proteins in these tests, tags left out.
UniProt P15311: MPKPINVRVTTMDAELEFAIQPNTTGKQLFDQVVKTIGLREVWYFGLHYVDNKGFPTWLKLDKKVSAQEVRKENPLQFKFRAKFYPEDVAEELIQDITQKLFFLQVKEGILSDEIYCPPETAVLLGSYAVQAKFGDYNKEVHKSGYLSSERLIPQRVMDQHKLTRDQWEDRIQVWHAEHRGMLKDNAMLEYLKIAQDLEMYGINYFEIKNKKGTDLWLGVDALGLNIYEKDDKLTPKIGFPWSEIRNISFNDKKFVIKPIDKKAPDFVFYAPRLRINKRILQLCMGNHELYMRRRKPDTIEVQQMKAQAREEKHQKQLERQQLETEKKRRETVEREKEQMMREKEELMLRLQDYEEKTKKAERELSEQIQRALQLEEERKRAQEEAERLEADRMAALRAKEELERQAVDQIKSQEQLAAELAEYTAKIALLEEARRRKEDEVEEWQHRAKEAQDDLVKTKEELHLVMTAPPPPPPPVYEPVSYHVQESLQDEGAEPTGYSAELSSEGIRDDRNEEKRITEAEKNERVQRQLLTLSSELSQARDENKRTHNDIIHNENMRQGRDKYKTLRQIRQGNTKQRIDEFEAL
UniProt P26040: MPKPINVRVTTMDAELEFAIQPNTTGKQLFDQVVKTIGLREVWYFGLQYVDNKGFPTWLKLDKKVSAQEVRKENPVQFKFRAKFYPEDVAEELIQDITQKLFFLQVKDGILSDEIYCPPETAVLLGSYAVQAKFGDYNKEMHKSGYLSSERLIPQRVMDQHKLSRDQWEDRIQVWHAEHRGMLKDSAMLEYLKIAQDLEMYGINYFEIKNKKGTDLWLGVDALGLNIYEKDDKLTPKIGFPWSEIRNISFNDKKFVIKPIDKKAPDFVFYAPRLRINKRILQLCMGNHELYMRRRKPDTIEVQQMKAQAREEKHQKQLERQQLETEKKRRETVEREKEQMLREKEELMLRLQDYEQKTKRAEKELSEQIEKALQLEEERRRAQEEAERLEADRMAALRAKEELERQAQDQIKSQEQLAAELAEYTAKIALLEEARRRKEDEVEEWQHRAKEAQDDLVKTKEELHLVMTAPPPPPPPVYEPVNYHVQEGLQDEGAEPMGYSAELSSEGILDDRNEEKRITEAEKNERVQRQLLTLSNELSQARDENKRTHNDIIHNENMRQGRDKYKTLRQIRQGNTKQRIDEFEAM

[2] = molecular target: T2, ENKD1, endogenous, mouse RPE / retinal tissue (mouse (endogenous in mouse RPE tissue)) (UniProt Q7TSV9); experiment: co-IP; endogenous proteins, lysates of mouse RPE / retinal tissue; WT and Cyld KO mice compared for ENKD1-Ezrin; immunoprecipitation buffer with 150 mM NaCl, 1% NP-40, pH 7.5, 4 °C, 4 h
T2 sequence: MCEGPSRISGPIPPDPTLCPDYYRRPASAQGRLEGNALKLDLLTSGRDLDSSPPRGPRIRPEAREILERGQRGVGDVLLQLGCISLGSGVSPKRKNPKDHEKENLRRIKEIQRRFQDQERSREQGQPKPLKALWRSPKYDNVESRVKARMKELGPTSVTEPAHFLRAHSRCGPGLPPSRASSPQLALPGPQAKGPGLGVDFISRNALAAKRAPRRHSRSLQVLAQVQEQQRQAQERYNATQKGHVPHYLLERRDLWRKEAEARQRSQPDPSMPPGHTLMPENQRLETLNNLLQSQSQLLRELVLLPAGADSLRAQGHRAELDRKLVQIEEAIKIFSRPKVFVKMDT

HA-ENKD1 (human) = molecular target: T3, HA-ENKD1 (human) (UniProt Q9H0I2); experiment: co-IP; HEK293T cells transfected with tagged constructs (partner exogenous or endogenous); also with control or CYLD siRNAs and rescue with GFP, GFP-CYLD or GFP-CYLD C/S; immunoprecipitation buffer with 150 mM NaCl, 1% NP-40, pH 7.5, 4 °C, 4 h
T3 sequence: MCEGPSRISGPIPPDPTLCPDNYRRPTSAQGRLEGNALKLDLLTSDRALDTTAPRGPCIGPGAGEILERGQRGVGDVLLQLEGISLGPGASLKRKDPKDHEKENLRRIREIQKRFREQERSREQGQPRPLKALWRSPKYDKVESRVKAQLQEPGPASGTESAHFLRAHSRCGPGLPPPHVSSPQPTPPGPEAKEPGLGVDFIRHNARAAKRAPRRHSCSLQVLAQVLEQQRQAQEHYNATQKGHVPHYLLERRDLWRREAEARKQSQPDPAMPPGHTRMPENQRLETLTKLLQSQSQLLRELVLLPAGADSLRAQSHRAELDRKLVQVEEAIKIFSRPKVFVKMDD

[3] = molecular target: T4, HA-ENKD1 K141R/K242R (KK/RR) (human) (UniProt Q9H0I2); experiment: as above
T4 sequence: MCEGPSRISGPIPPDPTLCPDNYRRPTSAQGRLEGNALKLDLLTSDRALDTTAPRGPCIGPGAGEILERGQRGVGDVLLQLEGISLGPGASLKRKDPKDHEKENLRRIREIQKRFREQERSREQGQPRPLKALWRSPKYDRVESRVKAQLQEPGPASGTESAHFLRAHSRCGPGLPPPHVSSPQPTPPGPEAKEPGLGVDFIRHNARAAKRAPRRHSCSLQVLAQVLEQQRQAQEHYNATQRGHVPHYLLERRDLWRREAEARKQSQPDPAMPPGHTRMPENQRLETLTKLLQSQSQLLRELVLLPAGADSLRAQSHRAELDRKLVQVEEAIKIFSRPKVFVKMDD

[4] = molecular target: T2, ENKD1, endogenous, mouse RPE / retinal tissue (mouse (endogenous in mouse RPE tissue)); experiment: co-IP; endogenous proteins, lysates of mouse RPE / retinal tissue; WT and Cyld KO mice compared for ENKD1-Ezrin; immunoprecipitation buffer with 150 mM NaCl, 1% NP-40, pH 7.5, 4 °C, 4 h; remark: listed apart in the source

binding [1]: binds
Molecule: Ezrin, endogenous, ARPE-19 cells (from UniProt P15311 1-586)

binding [2]: binds
Molecule: Ezrin, endogenous, mouse RPE / retinal tissue (from UniProt P26040 1-586)

binding (HA-ENKD1 (human)): binds
binding [3]: binds
Molecule: exogenous Ezrin with the indicated tag (GFP-Ezrin or Myc-Ezrin) (from UniProt P15311 1-586)

binding [4]: binds
B1: CYLD, endogenous, mouse RPE tissue (protein, UniProt Q80TQ2 1-952)
chain: MSSGLWSQEKVTSPYWEERIFYLLLQECSVTDKQTQKLLKVPKGSIGQYIQDRSVGHSRVPSTKGKKNQIGLKILEQPHAVLFVDEKDVVEINEKFTELLLAITNCEERLSLFRNRLRLSKGLQVDVGSPVKVQLRSGEEKFPGVVRFRGPLLAERTVSGIFFGVELLEEGRGQGFTDGVYQGKQLFQCDEDCGVFVALDKLELIEDDDNGLESDFAGPGDTMQVEPPPLEINSRVSLKVGESTESGTVIFCDVLPGKESLGYFVGVDMDNPIGNWDGRFDGVQLCSFASVESTILLHINDIIPDSVTQERRPPKLAFMSRGVGDKGSSSHNKPKVTGSTSDPGSRNRSELFYTLNGSSVDSQQSKSKNPWYIDEVAEDPAKSLTEMSSDFGHSSPPPQPPSMNSLSSENRFHSLPFSLTKMPNTNGSMAHSPLSLSVQSVMGELNSTPVQESPPLPISSGNAHGLEVGSLAEVKENPPFYGVIRWIGQPPGLSDVLAGLELEDECAGCTDGTFRGTRYFTCALKKALFVKLKSCRPDSRFASLQPVSNQIERCNSLAFGGYLSEVVEENTPPKMEKEGLEIMIGKKKGIQGHYNSCYLDSTLFCLFAFSSALDTVLLRPKEKNDIEYYSETQELLRTEIVNPLRIYGYVCATKIMKLRKILEKVEAASGFTSEEKDPEEFLNILFHDILRVEPLLKIRSAGQKVQDCNFYQIFMEKNEKVGVPTIQQLLEWSFINSNLKFAEAPSCLIIQMPRFGKDFKLFKKIFPSLELNITDLLEDTPRQCRICGGLAMYECRECYDDPDISAGKIKQFCKTCSTQVHLHPRRLNHSYHPVSLPKDLPDWDWRHGCIPCQKMELFAVLCIETSHYVAFVKYGKDDSAWLFFDSMADRDGGQNGFNIPQVTPCPEVGEYLKMSLEDLHSLDSRRIQGCARRLLCDAYMCMYQSPTMSLYK
